Measurements as given in patent US20200292528A1, “CELL CHEMOTAXIS ASSAYS” (The General Hospital Corporation, priority 2013, published 2020).
Some results were stated once for a whole list of compounds, not compound by compound.

Test system: neutrophils
Experiment: Microfluidic neutrophil chemotaxis assay, healthy donor whole blood (finger prick, venous) and isolated neutrophils
Assay type: cell-based, human
Description: Capillary blood (50 μL) was collected by pricking a finger of healthy volunteers. The blood was then pipetted into an eppendorf tube containing a mixed solution of HBSS media, heparin anti-coagulant (1.65 USP/50 μL of blood), and Hoescht stain (10 μL, 32.4 μM). […] Louis, Mo.) or Leukotriene B4 (LTB4) (Caymen Chemicals, Ann Arbor, Mich.) [100 nM] immediately after the PDMS donut-shaped device was bonded to the well plate. The chemoattractant solution also contained fibronectin [25 nM] (Sigma-Aldrich, St. Louis, Mo.) to promote neutrophil surface adhesion. The chemoattractant was pipetted into the whole blood loading chamber (WBLC) and directly around the circumference of the device. […] Afterwards, the central whole-blood loading chamber and the outside region surrounding the donut were washed thoroughly with Phosphate Buffered Saline (PBS) in each well to wash away excess chemoattractant. […] Directionality of primed neutrophils was quantified by counting the number of cells that followed the chemotactic gradient and turned at the bifurcation toward the chemoattractant chamber as opposed to the number of cells that exited the device to the peripheral region. Cell velocities were calculated using Image J (NIH) and data analysis with GraphPad Prism. […]

For `CSCC[C@H](NC=O)C(=O)N[C@@H](CC(C)C)C(=O)N[C@@H](Cc1ccccc1)C(=O)O` [fMLP, N-formyl-methionyl-leucyl-phenylalanine], which directionality index is on record?
The directionality index was “greater than 0.9”.
